Experimental data: patent publication US20030003519A1, “Compositions and methods for the discovery and selection of biological information” (priority 2000, published 2003)
At least one compound was matched to its structure with a doubt left.

Test system: effect of TNFα on SEAP reporter gene activity in selected EL-4 cells
Experiment: TNFα-induced SEAP reporter gene activity in selected EL-4 cell clones
Format: cell-based

Compound: Cc1ccc(-c2cc(C(F)(F)F)nn2-c2ccc(S(N)(=O)=O)cc2)cc1 [celecoxib]
- clones affected or not by the Cox-2 inhibitor (clones PD-5, PA-6, PA-5 and PB-5): not affected
- clones affected or not by the Cox-2 inhibitor (clones PD-6 and C-5): affected
- inhibiting the effect of TNFα on SEAP reporter gene activity (selected EL-4 cells (FIG. 16)): ineffective
